Source: patent US20130034518A1
No constants are given. Whether binding was seen depends on the method and setting. Binding seen in cells or lysates may run through a third protein. Some binding calls cover weakened binding; strength is not graded here.

Target: rest of the mature (wild-type) human IL-12p40 subunit after cleavage between Lys260 and Arg261 (human) (UniProt P29460)
Assay: co-purification with the recombinant antibody-IL-12 fusion protein; fragment seen only on reducing SDS-PAGE or denaturing RP-HPLC

Binder: REKKDRVFTDKTSATVICRKNASISVRAQDRYYSSSWSEWASVPCS
- binding: binds
